One substance from PMC12456051 can be followed below.

Protein sequences, listed by entry. Tags and fused reporters are not part of them.
UniProt P11142: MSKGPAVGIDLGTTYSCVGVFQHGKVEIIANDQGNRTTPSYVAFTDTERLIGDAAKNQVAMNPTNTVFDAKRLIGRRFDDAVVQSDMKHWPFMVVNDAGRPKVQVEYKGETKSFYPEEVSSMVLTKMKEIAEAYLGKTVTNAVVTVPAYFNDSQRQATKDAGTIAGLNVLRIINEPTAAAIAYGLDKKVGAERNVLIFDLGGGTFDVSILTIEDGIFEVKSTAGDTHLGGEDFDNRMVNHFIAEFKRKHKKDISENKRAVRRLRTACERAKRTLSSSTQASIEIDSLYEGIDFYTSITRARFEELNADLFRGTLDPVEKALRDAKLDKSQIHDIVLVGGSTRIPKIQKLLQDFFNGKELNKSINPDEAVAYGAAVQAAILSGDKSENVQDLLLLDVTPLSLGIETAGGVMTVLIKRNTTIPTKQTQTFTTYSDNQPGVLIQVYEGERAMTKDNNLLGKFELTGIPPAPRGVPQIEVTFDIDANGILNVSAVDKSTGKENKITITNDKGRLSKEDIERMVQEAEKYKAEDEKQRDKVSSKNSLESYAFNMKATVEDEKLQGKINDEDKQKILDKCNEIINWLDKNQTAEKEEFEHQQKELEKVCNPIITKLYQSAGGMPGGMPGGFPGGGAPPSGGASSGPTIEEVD
UniProt O14964: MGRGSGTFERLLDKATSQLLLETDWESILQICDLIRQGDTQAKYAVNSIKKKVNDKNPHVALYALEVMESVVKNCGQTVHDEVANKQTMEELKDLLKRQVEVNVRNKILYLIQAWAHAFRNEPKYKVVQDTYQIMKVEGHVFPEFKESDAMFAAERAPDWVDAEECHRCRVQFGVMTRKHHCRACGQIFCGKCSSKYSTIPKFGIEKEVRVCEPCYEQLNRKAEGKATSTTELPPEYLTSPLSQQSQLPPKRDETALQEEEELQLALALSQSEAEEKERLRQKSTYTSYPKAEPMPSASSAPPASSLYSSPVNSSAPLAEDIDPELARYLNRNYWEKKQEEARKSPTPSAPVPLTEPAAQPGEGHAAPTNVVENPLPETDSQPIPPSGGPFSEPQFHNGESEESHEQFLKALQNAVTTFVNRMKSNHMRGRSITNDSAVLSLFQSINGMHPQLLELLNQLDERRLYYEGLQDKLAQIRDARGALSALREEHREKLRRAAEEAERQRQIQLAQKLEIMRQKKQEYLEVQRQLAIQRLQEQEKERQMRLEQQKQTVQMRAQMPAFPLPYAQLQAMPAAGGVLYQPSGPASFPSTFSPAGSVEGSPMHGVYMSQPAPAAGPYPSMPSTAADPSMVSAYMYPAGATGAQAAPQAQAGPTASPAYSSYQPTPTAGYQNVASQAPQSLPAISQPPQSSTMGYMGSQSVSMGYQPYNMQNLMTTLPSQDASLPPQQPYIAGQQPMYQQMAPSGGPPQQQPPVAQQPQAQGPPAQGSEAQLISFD

The target in the assay is heat shock cognate protein 70 (human (endogenous in HeLa)) (UniProt P11142). Put plainly: co-IP; with and without HRS overexpression; pulled down by HSC70 (supplementary Figure S5E) or by Cas9 (supplementary Figure S5F); cells not told in the text shown.

No constants are given. Whether binding was seen depends on the method and setting. Binding seen in cells or lysates may run through a third protein. Some binding calls cover weakened binding; strength is not graded here.

As for “hepatocyte growth factor-regulated tyrosine kinase substrate (from UniProt O14964 1-777)”, the binding entry is “binds”.
